We go through one substance from US20150374844A1 (UNIVERSITY OF PENNSYLVANIA, priority 2013, published 2015).

The series can be described thus: peptide synthesis. Particulars: conjugation step, uv quantified.

“WSDLAQALSDLAQALSDLAQALSDLAQAGGC-OS1 conjugate” returned a conjugation yield of 12.62%.
